According to patent US9512406B2, “Generating hepatocytes” (The J. David Gladstone Institutes, a testamentary trust …, priority 2013, dated 2016):
Some of these results come from one statement about several compounds together.

Tested on: Human newborn fibroblasts (CRL-2097, ATCC)
Assay: Reprogramming of newborn fibroblasts to endoderm, FOXA2-positive colonies by immunostaining
Conditions: NaB, Par and RG108 added together, on top of CHIR, DLPC and Activin A; day 28

With `O=C(O)[C@@H](Cc1c[nH]c2ccccc12)N1C(=O)c2ccccc2C1=O` [RG108] the “number of FOXA2-positive colonies generated from 1×10^4 fibroblasts” value was “over 80”.
